# PubChem BioAssay AID743121 – NCATS | 2013
# Aim: 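Knock-downs that sensitise breast cancer cells to camptothecin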 (primary screen)
# Cell system: MDA-MB-231 cells, a human breast cancer line
# Reagents: single siRNA against human genes, 20 nM siRNA (0.8 pmol per well)
# Time to read-out: 120 h (drug added 48 h after transfection, read 72 h later)
# Conditions: camptothecin 20 nM (about EC30) for 72 h; vehicle 0.1% DMSO in parallel plates
# Detection: 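CellTiter-Glo ATP signal, scaled to control siRNA as percent viability; sensitisation given as log2 of untreated divided by camptothecin-treated viability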
# Direction: log2 vehicle/camptothecin viability: higher = stronger sensitisation to camptothecin; viability with camptothecin and viability without drug: higher = more viable cells
# Call rule: 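Active genes have an RSA gene-level p-value below 0.001, computed from the ratios of their separate siRNAs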
# Shown is an unselected part of about 26,000 reagents tested. In the full data, 167 (0.63%) are marked active. 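Calls are per gene from RSA p-values that are not deposited; an individual active-marked siRNA can sensitise only weakly.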 Entries without a mark were called inactive. The numbers tell different reagents against one gene apart. No sequences are given here.
The opening 2 entries as a preview:
gene knocked down,reagent no.,log2 vehicle/camptothecin viability,viability with camptothecin (% of control),viability without drug (% of control)
GSAP (gamma-secretase activating protein),1,-0.156,101,90.7
GSAP (gamma-secretase activating protein),2,-0.113,99.6,92.1

Main list, from the first entry:
gene knocked down,reagent no.,log2 vehicle/camptothecin viability,viability with camptothecin (% of control),viability without drug (% of control)
GSAP (gamma-secretase activating protein),1,-0.156,101,90.7
GSAP (gamma-secretase activating protein),2,-0.113,99.6,92.1
GSAP (gamma-secretase activating protein),3,-0.199,119,104
GSAP (gamma-secretase activating protein),4,-0.255,66.2,55.5
UQCRC2 (ubiquinol-cytochrome c reductase core protein 2),1,0.972,18.2,35.6
UQCRC2 (ubiquinol-cytochrome c reductase core protein 2),2,0.125,55.4,60.4
UQCRC2 (ubiquinol-cytochrome c reductase core protein 2),3,-0.309,68.9,55.7
MAN2A2 (mannosidase alpha class 2A member 2),1,-0.225,127,109
MAN2A2 (mannosidase alpha class 2A member 2),2,-0.302,66,53.5
MAN2A2 (mannosidase alpha class 2A member 2),3,-0.232,99.9,85.1
LEPR (leptin receptor),1,-0.205,116,101
LEPR (leptin receptor),2,-0.241,112,94.5
LEPR (leptin receptor),3,-0.408,82.3,62.1
LEPR (leptin receptor),4,0.586,42.9,64.5
MXD4 (MAX dimerization protein 4),1,0.444,20,27.2
MXD4 (MAX dimerization protein 4),2,0.482,29.3,40.9
MXD4 (MAX dimerization protein 4),3,0.0686,36.9,38.7
MXD4 (MAX dimerization protein 4),4,-0.118,104,95.8
TMT1A (thiol methyltransferase 1A),1,-0.33,77,61.2
TMT1A (thiol methyltransferase 1A),2,-0.148,113,102
TMT1A (thiol methyltransferase 1A),3,-0.15,97.8,88.2
ACKR5 (atypical chemokine receptor 5),1,-0.531,46.2,32
ACKR5 (atypical chemokine receptor 5),2,-0.654,106,67.4
ACKR5 (atypical chemokine receptor 5),3,-0.269,64.5,53.5
ACKR5 (atypical chemokine receptor 5),4,-0.326,84.7,67.6
WWOX (WW domain containing oxidoreductase),1,-0.407,94,70.9
WWOX (WW domain containing oxidoreductase),2,-0.135,98.1,89.4
WWOX (WW domain containing oxidoreductase),3,-0.326,125,99.7
WWOX (WW domain containing oxidoreductase),4,0.317,68.9,85.9
WWOX (WW domain containing oxidoreductase),5,0.271,58.3,70.4
WWOX (WW domain containing oxidoreductase),6,-0.166,24.6,21.9
WWOX (WW domain containing oxidoreductase),7,-0.335,86.6,68.7
WWOX (WW domain containing oxidoreductase),8,-0.205,97.8,84.8
KIF2A (kinesin family member 2A),1,-0.146,108,97.5
KIF2A (kinesin family member 2A),2,-0.211,103,88.7
KIF2A (kinesin family member 2A),3,-0.103,60.6,56.4
KIF2A (kinesin family member 2A),4,0.0191,89.4,90.6
LNX2 (ligand of numb-protein X 2),1,-0.216,7.66,6.59
LNX2 (ligand of numb-protein X 2),2,-0.256,111,93.2
LNX2 (ligand of numb-protein X 2),3,-0.00429,31.4,31.3
LNX2 (ligand of numb-protein X 2),4,-0.215,129,111
CR2 (complement C3d receptor 2),1,-0.0681,81.8,78
CR2 (complement C3d receptor 2),2,0.416,59.2,79
CR2 (complement C3d receptor 2),3,-0.0243,50.6,49.7
CR2 (complement C3d receptor 2),4,-0.145,131,118
ACSM3 (acyl-CoA synthetase medium chain family member 3),1,0.0459,106,110
ACSM3 (acyl-CoA synthetase medium chain family member 3),2,0.00148,81.2,81.3
ACSM3 (acyl-CoA synthetase medium chain family member 3),3,-0.431,91.5,67.9
